The nature of this series: Proteomic analysis of native murine pancreata and decelled pancreatic ECM (Table 1). More on the design: species or system mouse. The settings on record: for Pancreatic ECM: Mean of log2(intensities): abundance of the listed protein in decelled pancreatic ECM; for Native pancreas tissue: Mean of log2(intensities): abundance of the listed protein in native murine pancreas tissue.

B1: Q8BK08 (protein, UniProt Q8BK08 1-190, looked up)
chain: MAAWGRRRLGPGGGGSRERVSLSATDCYIVHEIYSGENAQDQFEYELEQALEAQYKYIVIEPTRIGDETARWITVGNCLHKTAVLAGTACLFTPLALPLDYSHYISLPAGVLSLACCTLYGISWQFDPCCKYQVEYDAYKLSRLPLHTLTSSTPVVLVRKDDLHRKRLHNTIALAALVYCVKKVYELYAV
modifications: full-length
Consider B1, for which the “Pancreatic ECM: Mean of log2(intensities)” value stood at 26.15 a.u and the “Native pancreas tissue: Mean of log2(intensities)” value was 22.68 a.u.

B2: Q8BKS9 (protein, UniProt Q8BKS9 1-647, looked up)
chain: MEVKGKKKFTGKSPQTSQGKNKFHKNSESSSSKTFPRKAVKEGGPKVTSKNFEKGATKPGKKGVKQFKNKPQGGKGPKDKFQKANKFSKKRKFQPDGESDESGAKKPKWDDFKKKKKELKQSRQLSDKTNYDIVVRAKHIWESLRRKDCDKEKRVKLMSDLQKLIQGKIKTIAFAHDSTRVIQCFIQYGNEEQRKQAFQELQGDLVELSKAKYSRNIVKKFLMYGSKPQVAEIIRSFKGHVRKMLRHSEASAIVEYAYNDKAILEQRNMLTEELYGNTFQLYKSADHPTLDKVLELQPAKLELIMDEMKQILTPMAQKEAVIKHSLVHKVFLDFFTYAPPKPRSELIEAIREAVVYLAHTHDGARVAMHCLWHGTPKDRKVIVKTMKTYVEKVANGQYSHLVLLAAFDCIDDTKLVKQIIISEIISSLPSIVNDKYGRKVLLYLMSPRDPAHTVPELIELLQKGDGNAHSKKDTAIRRRELLESISPALLSYLQGHTQEVVLDKSACVLVSDMLGSATGDVQPAMDAIASLAAAELHPGGKDGELHVAEHPAGHLVLKWLLEQDKKMKESGKEGCFAKTLVERVGMKNLKSWASINRGAIILSSLLQSCDQEVVNKVKGGLKPLIPTLEKNKSSSRGIQTLLEKLTA
modifications: full-length
In the case of B2, the “Pancreatic ECM: Mean of log2(intensities)” value turned out to be 25.11 a.u and the “Native pancreas tissue: Mean of log2(intensities)” value amounted to 21.62 a.u.

B3: Q8K2A8 (protein, UniProt Q8K2A8 1-438, looked up)
chain: MAAGLRKRGQPASVGQPAGIWKQWLQRAWQERYLLLREPRYTLLVASCLCIAEVGITFWVIHRVAYTEIDWKAYMAQVEGFINGTYDYTQLQGDTGPLVYPAGFLYIFTGLFYATDRGTDIPMAQNIFAVLYLVTLVLVFLIYHQTSKVPPFVFFFMCCASYRVHSIFVLRLFNDPVAMALLFLSINLFLAQCWSWGCCCFSLAVSVKMNVLLFAPGLLFLLLTQFGFRGALPKLAICAALQVVLGLPFLLENPIGYLSRSFDLGRQFLFQWTVNWRFLPETIFLHRAFHLALLAAHLSLLLLFALCRWHRTGESILALLKDPSKRKVPPQALTPNQIVSILFTSNFIGICFSRSLHYQFYVWYFHTLPYLLWAMPARWLTHLLRLLVLGLIELSWNTYPSTSFSSAALHLCHAVVLLQLWLSPESFPKSIQPSRKTH
modifications: full-length
B3: the “Pancreatic ECM: Mean of log2(intensities)” value was determined as 25.59 a.u and the “Native pancreas tissue: Mean of log2(intensities)” value worked out at 22.01 a.u.

B4: Q8R570 (protein, UniProt Q8R570 1-413, looked up)
chain: MSSDMRVHSWSCSYYLDLEKQWVSGKLTLTPHSLKFIVEKTEEVLVGLPLSSIIEIRKESSLFIFGAITVLEKGQTKHWFSSLQPSRNVVFNVIEHFWRELLLSQPGTAANIPSHVTRGQELIGLMANSQKRMEDTAKDLQQQSEQLDSVLKGLEKMESDLDVADRLLTELETPSWWPFGSKFWKMPAEENLKEGVSSTCEPFGKEGVVITVPAIISERAESHSKLGKLTVLVSALEIYDSCSLLLHRFEKEDVDDIKVHSPYEVSIRQRFIGKPDVAYQLISAKMPEVIPILEVQFSSKIELLEDALVLRNKVFASSAERHAASRPKGCTPHRELPTGGQEGEQLQLQKNLPLFSEGEAQELTQILSKMKGLALDTEAELERQDAALDGITVAVDRATLNVDKQNRRMRKLM
modifications: full-length
Regarding B4, the “Pancreatic ECM: Mean of log2(intensities)” value is on record as 24.74 a.u and the “Native pancreas tissue: Mean of log2(intensities)” value was 21.23 a.u.

B5: Q9JKN1 (protein, UniProt Q9JKN1 1-378, looked up)
chain: MLPLSIKDDEYKPPKFNLFGKISGWFRSILSDKTSRNLFFFLCLNLSFAFVELLYGIWSNCLGLISDSFHMFFDSTAILAGLAASVISKWRDNDAFSYGYVRAEVLAGFVNGLFLIFTAFFIFSEGVERALAPPDVHHERLLLVSILGFVVNLVGIFVFNHGGHGHSHGSGHGHSHSLFNGALDHSHGHEDHCHSHEAKHGAAHSHDHDHAHGHGHLHSHDGPSFKATAGPSRQILQGVFLHILADTLGSIGVIASAIMMQNFGLMIADPICSILIAILIVVSVIPLLRESVGILMQRTPPSLENTLPQCYQRVQQLQGVYNLQEQHFWTLCSDVYVGTLKLVVAPDADARWILSQTHNIFTQAGVRQLYVQIDFAAM
modifications: full-length
In the case of B5, the “Pancreatic ECM: Mean of log2(intensities)” value turned out to be 26.10 a.u and the “Native pancreas tissue: Mean of log2(intensities)” value is 22.62 a.u.

B6: Q8BGS7 (protein, UniProt Q8BGS7 1-416, looked up)
chain: MSGHRSTRKRCGDSHPESPVGFGHMSTTGCVLNKLFQLPTPPLSRHQLKRLEEHRYQSAGRSLLEPLMQGYWEWLVGRVPSWIAPNLITIIGLSINICTTILLVFYCPTATEQAPLWAYIACACGLFIYQSLDAIDGKQARRTNSSSPLGELFDHGCDSLSTVFVVLGTCIAVQLGTNPDWMFFCCFAGTFMFYCAHWQTYVSGTLRFGIIDVTEVQIFIIIMHLLAVIGGPPFWQSMIPVLNIQMKLLPALCTVAGTIFSCTNYFRVIFTGGVGKNGSTIAGTSVLSPFLHIGSVITLAVMIYKKSAVQLFEKHPCLYILTFGFVSAKITNKLVVAHMTKSEMHLHDTAFIGPALLFLDQYFNSFIDEYIVLWIALIFSFFDLIRYCVSVCNQIASHLHIHVFRIKASTAHSNHH
modifications: full-length
For the molecule B6, the “Pancreatic ECM: Mean of log2(intensities)” value was found to be 25.39 a.u and the “Native pancreas tissue: Mean of log2(intensities)” value stood at 21.85 a.u.

B7: Q99JR5 (protein, UniProt Q99JR5 1-466, looked up)
chain: MWGCWLGLLLLLLAGQAALEARRSRWRRELAPGLHLRGIRDAGGRYCQEQDMCCRGRADECALPYLGATCYCDLFCNRTVSDCCPDFWDFCLGIPPPFPPVQGCMHGGRIYPVFGTYWDNCNRCTCHEGGHWECDQEPCLVDPDMIKAINRGNYGWQAGNHSAFWGMTLDEGIRYRLGTIRPSSTVMNMNEIYTVLGQGEVLPTAFEASEKWPNLIHEPLDQGNCAGSWAFSTAAVASDRVSIHSLGHMTPILSPQNLLSCDTHHQQGCRGGRLDGAWWFLRRRGVVSDNCYPFSGREQNEASPTPRCMMHSRAMGRGKRQATSRCPNGQVDSNDIYQVTPAYRLGSDEKEIMKELMENGPVQALMEVHEDFFLYQRGIYSHTPVSQGRPEQYRRHGTHSVKITGWGEETLPDGRTIKYWTAANSWGPWWGERGHFRIVRGTNECDIETFVLGVWGRVGMEDMGHH
modifications: full-length
For the molecule B7, the “Pancreatic ECM: Mean of log2(intensities)” value was found to be 27.48 a.u and the “Native pancreas tissue: Mean of log2(intensities)” value was found to be 22.50 a.u.

B8: Q9EQ06 (protein, UniProt Q9EQ06 1-298, looked up)
chain: MKYLLDLILLLPLLIVFSIESLVKLFIPKKKKSVAGEIVLITGAGHGIGRLTAYEFAKLNTKLVLWDINKNGIEETAAKCRKLGAQAHPFVVDCSQREEIYSAAKKVKEEVGDVSILVNNAGVVYTADLFATQDPQIEKTFEVNVLAHFWTTKAFLPVMMKNNHGHIVTVASAAGHTVVPFLLAYCSSKFAAVGFHRALTDELAALGRTGVRTSCLCPNFINTGFIKNPSTNLGPTLEPEEVVEHLMHGILTEKQMIFVPSSIALLTVLERIVPERFLQVLKHRINVKFDAVVGYKDK
modifications: full-length
For B8, the “Pancreatic ECM: Mean of log2(intensities)” value is reported as 24.95 a.u and the “Native pancreas tissue: Mean of log2(intensities)” value amounted to 21.32 a.u.

B9: Q91YR7 (protein, UniProt Q91YR7 1-941, looked up)
chain: MNKKKKPFLGMPAPLGYVPGLGRGATGFTTRSDIGPARDANDPVDDRHAPPGKRTVGDQMKKNQAADDDDEDLNDTNYDEFNGYAGSLFSSGPYEKDDEEADAIYAALDKRMDERRKERREQREKEEIEKYRMERPKIQQQFSDLKRKLAEVTEEEWLSIPEVGDARNKRQRNPRYEKLTPVPDSFFAKHLQTGENHTSVDPRQTQFGGLNTPYPGGLNTPYPGGMTPGLMTPGTGELDMRKIGQARNTLMDMRLSQVSDSVSGQTVVDPKGYLTDLNSMIPTHGGDINDIKKARLLLKSVRETNPHHPPAWIASARLEEVTGKLQVARNLIMKGTEMCPKSEDVWLEAARLQPGDTAKAVVAQAVRHLPQSVRIYIRAAELETDIRAKKRVLRKALEHVPNSVRLWKAAVELEEPEDARIMLSRAVECCPTSVELWLALARLETYENARKVLNKARENIPTDRHIWITAAKLEEANGNTQMVEKIIDRAITSLRANGVEINREQWIQDAEECDRAGSVATCQAVMRAVIGIGIEEEDRKHTWMEDADSCVAHNALECARAIYAYALQVFPSKKSVWLRAAYFEKNHGTRESLEALLQRAVAHCPKAEVLWLMGAKSKWLAGDVPAARSILALAFQANPNSEEIWLAAVKLESENNEYERARRLLAKARSSAPTARVFMKSVKLEWVLGNISAAQELCEEALRHYEDFPKLWMMKGQIEEQGELMEKAREAYNQGLKKCPHSTPLWLLLSRLEEKIGQLTRARAILEKSRLKNPKNPGLWLESVRLEYRAGLKNIANTLMAKALQECPNSGILWSEAVFLEARPQRKTKSVDALKKCEHDPHVLLAVAKLFWSERKITKAREWFHRTVKIDSDLGDAWAFFYKFELQHGTEEQQEEVRKRCENAEPRHGELWCAVSKDITNWQRKIGEILVLVAARIKNTF
modifications: full-length
On to B9, for which the “Pancreatic ECM: Mean of log2(intensities)” value is 25.17 a.u and the “Native pancreas tissue: Mean of log2(intensities)” value was determined as 21.61 a.u.

B10: P35821 (protein, UniProt P35821 1-432, looked up)
chain: MEMEKEFEEIDKAGNWAAIYQDIRHEASDFPCKVAKLPKNKNRNRYRDVSPFDHSRIKLHQEDNDYINASLIKMEEAQRSYILTQGPLPNTCGHFWEMVWEQKSRGVVMLNRIMEKGSLKCAQYWPQQEEKEMVFDDTGLKLTLISEDVKSYYTVRQLELENLTTKETREILHFHYTTWPDFGVPESPASFLNFLFKVRESGSLSLEHGPIVVHCSAGIGRSGTFCLADTCLLLMDKRKDPSSVDIKKVLLEMRRFRMGLIQTADQLRFSYLAVIEGAKFIMGDSSVQDQWKELSREDLDLPPEHVPPPPRPPKRTLEPHNGKCKELFSSHQWVSEETCGDEDSLAREEGRAQSSAMHSVSSMSPDTEVRRRMVGGGLQSAQASVPTEEELSSTEEEHKAHWPSHWKPFLVNVCMATLLATGAYLCYRVCFH
modifications: full-length
With B10, the “Pancreatic ECM: Mean of log2(intensities)” value is given as 24.58 a.u and the “Native pancreas tissue: Mean of log2(intensities)” value was determined as 21.10 a.u.

B11: Q9D8Y1 (protein, UniProt Q9D8Y1 1-196, looked up)
chain: MESHKPSTSKDDLILNIISRKIKQLPESDRNLLEYGSAYIGLNAAFGGLIANSLFRRILNVTQARLASSLPMAVIPFLTANLSYQSLVSLPLSTGDLNCETCTTTRGALVGLVMGGLYPILLAIPVNGGLAARYESSPLPQRGNIFNYWITVSKPVFRKMLFPTLLQTVFASYLGSRQYKLLIKALQLPEPDLEIH
modifications: full-length
For the molecule B11, the “Pancreatic ECM: Mean of log2(intensities)” value was 24.82 a.u and the “Native pancreas tissue: Mean of log2(intensities)” value came out at 21.27 a.u.
